In the supplement of paper PMC12823440, “Inhibitors supercharge kinase turnover through native proteolytic circuits” (Nature, 2025):
Some of the results follow. The calls rarely recur for the same compound in another form.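 Kinases were expressed as nanoluciferase fusions in K562 cells and luminescence was read every 4 h between 2 and 18 h as percent of control, DMSO set to 100% and a positive control to 0%. A time point counts as decreased when the signal drops significantly (2 sigma). The hit call is the authors' own, does not follow from the count of time points alone, and its rule is not shown.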

Sequences of proteins named here, by UniProt entry; tags and fusion partners are left off. A change or cut given only in a name is not applied to a line headed by its entry.
UniProt P28482, whole entry: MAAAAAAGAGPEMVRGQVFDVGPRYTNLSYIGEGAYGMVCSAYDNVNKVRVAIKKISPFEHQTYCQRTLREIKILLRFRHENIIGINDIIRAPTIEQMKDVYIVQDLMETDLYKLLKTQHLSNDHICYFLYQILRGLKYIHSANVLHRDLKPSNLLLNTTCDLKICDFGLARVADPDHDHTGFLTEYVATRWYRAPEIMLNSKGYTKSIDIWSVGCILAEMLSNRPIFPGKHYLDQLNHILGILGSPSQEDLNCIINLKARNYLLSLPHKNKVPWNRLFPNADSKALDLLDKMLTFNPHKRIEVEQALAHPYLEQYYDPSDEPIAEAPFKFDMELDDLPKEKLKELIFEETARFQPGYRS
UniProt P31152, whole entry: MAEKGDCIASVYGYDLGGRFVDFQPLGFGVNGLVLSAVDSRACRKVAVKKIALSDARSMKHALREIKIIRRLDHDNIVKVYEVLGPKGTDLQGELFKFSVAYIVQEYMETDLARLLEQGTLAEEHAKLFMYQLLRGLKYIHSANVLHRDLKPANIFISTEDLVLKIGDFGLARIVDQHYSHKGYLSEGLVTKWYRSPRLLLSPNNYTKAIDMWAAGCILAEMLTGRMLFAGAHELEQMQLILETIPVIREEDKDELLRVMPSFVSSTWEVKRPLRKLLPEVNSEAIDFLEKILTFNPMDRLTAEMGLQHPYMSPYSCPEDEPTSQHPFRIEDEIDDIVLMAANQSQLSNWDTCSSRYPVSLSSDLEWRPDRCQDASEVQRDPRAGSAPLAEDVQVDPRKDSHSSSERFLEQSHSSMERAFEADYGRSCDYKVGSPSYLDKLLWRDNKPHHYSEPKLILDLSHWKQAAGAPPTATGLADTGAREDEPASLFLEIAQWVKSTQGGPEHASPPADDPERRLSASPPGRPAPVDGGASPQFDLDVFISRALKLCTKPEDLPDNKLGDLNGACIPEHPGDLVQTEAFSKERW
UniProt P49137, whole entry, looked up: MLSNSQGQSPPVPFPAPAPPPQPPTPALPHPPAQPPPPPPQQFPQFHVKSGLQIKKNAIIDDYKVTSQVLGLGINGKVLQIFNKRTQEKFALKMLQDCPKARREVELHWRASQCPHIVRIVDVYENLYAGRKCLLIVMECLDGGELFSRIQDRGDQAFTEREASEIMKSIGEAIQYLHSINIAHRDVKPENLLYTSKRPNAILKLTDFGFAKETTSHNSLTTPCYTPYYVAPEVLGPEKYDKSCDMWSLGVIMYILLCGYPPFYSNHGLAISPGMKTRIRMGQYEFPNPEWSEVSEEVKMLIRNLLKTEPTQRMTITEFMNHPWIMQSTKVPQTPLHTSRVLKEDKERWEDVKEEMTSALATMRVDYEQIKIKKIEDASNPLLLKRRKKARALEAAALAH
UniProt Q16288, whole entry, looked up: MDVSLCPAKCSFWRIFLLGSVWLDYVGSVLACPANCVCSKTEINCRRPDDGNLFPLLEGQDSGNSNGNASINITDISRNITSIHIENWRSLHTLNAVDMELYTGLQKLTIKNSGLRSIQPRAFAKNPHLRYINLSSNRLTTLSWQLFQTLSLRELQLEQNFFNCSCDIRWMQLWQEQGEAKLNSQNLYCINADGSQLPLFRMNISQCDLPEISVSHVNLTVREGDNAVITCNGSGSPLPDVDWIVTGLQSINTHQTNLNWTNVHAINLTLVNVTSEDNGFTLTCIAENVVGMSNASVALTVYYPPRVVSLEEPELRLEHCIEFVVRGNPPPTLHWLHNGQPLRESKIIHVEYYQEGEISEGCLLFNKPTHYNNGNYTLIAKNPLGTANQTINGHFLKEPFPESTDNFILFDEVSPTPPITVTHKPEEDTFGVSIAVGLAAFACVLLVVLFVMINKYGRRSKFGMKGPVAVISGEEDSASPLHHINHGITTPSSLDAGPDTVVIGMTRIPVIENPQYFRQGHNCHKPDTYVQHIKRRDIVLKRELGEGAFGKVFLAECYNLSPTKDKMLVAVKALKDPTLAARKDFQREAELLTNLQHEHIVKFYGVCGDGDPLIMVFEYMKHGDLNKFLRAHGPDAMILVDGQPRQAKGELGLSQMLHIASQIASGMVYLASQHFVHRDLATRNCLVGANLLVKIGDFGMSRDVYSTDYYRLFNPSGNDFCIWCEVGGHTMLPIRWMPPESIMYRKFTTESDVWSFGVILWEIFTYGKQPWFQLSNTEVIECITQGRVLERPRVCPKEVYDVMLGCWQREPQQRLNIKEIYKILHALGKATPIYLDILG
UniProt Q96KB5: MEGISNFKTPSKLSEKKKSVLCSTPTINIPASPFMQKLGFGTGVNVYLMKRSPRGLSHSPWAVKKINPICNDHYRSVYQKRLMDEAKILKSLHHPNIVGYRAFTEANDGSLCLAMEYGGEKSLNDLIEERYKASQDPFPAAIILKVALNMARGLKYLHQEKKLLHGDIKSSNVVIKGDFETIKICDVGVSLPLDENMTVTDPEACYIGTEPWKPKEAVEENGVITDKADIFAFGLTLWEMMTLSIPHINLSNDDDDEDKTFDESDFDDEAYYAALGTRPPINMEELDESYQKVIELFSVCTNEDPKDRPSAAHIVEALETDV
UniProt P09619, whole entry: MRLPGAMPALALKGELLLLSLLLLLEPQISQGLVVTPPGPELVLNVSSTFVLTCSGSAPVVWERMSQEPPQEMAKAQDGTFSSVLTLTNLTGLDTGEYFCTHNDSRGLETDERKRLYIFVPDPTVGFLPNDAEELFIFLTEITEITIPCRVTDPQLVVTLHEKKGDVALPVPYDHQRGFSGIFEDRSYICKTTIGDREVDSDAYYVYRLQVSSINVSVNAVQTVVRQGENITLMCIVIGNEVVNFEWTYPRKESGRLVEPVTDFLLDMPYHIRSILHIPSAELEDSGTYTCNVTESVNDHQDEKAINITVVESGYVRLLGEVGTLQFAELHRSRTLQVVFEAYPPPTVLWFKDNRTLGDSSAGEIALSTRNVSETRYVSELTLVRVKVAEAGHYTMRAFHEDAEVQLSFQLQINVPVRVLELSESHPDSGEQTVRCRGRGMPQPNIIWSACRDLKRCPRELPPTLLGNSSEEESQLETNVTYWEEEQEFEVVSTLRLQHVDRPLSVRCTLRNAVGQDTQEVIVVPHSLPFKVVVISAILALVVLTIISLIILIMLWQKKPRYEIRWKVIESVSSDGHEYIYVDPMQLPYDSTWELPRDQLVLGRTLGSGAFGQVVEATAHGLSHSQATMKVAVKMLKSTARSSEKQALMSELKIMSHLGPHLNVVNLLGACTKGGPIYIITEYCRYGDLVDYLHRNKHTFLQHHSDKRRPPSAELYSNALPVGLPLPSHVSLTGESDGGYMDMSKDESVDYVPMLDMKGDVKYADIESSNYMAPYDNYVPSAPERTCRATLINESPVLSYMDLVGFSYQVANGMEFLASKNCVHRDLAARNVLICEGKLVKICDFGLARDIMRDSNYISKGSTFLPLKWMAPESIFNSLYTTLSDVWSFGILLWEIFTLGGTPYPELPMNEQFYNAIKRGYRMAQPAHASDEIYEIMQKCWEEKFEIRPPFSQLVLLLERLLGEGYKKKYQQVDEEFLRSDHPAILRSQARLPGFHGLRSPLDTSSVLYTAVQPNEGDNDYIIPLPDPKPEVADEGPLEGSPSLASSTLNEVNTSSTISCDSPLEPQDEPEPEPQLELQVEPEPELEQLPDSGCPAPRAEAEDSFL
UniProt P42356, whole entry, looked up: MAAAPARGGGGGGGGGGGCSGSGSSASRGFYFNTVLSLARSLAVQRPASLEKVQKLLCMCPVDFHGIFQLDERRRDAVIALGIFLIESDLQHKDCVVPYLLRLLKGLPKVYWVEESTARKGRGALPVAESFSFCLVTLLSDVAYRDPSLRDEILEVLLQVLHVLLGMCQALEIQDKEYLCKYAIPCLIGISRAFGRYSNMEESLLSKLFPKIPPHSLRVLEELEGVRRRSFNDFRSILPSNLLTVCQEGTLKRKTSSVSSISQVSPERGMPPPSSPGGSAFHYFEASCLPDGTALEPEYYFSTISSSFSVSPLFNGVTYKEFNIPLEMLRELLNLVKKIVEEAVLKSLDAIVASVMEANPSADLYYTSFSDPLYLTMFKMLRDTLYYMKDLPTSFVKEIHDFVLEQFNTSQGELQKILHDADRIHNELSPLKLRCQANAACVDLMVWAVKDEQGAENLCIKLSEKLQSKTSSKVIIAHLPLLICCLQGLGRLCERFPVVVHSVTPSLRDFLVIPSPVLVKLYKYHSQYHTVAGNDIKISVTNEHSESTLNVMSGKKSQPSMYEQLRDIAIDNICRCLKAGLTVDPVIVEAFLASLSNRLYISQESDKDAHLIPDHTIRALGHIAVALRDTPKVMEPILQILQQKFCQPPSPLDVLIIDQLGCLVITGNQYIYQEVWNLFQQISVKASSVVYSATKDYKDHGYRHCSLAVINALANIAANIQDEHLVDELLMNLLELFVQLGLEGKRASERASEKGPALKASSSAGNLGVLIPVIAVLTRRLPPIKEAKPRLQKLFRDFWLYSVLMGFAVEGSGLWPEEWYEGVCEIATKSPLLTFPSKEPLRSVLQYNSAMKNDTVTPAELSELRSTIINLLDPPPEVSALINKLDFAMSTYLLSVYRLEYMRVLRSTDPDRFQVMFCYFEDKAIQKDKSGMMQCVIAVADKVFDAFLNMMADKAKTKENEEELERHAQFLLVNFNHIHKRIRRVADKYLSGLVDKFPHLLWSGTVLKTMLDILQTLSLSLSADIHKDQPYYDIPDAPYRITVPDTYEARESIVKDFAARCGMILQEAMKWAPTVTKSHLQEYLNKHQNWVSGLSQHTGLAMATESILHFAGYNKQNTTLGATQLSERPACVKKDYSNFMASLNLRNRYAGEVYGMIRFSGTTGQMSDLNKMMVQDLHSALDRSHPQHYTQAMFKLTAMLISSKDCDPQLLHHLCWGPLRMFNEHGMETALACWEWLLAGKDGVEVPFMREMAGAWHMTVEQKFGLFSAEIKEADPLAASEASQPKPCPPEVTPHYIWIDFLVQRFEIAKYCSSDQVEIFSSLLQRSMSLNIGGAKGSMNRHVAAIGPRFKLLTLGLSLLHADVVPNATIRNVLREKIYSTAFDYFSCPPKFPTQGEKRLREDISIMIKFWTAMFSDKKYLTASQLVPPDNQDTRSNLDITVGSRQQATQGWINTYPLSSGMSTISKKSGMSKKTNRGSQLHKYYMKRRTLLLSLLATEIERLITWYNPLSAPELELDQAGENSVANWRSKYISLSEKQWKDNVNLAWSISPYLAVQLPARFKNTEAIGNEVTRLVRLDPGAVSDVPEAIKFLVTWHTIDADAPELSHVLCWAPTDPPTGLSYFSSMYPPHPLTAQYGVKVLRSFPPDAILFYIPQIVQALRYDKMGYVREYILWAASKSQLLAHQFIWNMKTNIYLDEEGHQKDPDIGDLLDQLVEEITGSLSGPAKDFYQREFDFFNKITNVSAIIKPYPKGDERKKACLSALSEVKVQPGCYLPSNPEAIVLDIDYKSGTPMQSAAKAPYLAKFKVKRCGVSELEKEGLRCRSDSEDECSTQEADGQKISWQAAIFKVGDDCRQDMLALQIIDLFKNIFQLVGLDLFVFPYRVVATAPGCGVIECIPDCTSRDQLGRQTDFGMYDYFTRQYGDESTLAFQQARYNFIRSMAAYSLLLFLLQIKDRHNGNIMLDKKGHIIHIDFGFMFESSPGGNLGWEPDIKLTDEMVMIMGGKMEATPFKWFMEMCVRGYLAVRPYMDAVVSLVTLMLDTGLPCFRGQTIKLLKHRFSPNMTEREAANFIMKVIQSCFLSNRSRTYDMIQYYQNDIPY
UniProt Q9UBF8: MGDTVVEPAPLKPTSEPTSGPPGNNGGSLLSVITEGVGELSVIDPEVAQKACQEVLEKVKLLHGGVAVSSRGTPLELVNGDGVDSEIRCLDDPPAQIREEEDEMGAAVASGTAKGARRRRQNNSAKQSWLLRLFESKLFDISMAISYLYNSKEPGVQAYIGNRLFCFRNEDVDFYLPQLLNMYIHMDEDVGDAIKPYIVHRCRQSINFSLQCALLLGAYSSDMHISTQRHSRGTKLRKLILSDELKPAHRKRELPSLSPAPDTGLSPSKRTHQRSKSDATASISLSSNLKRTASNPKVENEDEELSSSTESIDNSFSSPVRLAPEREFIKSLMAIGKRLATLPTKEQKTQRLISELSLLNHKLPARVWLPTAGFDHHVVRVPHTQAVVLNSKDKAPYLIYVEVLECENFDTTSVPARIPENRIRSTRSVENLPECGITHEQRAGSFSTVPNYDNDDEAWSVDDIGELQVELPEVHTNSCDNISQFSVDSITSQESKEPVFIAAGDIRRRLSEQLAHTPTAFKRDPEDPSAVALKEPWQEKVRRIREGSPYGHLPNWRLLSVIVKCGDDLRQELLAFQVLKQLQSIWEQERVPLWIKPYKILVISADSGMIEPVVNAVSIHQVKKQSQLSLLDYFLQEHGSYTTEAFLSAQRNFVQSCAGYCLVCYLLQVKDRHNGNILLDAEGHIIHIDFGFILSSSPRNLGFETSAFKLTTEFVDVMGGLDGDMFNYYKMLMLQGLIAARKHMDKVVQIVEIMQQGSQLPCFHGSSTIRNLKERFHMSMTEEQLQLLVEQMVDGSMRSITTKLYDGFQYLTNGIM

Key:
Assay in all cases: kinase-Nluc reporter destabilization hit call (1 = scored as downregulated) (binary); higher = compound decreases kinase abundance
Conditions in all cases: K562; 2-18 h
MAPK1 = MAPK1 (UniProt P28482)
MAPK4 = MAPK4 (UniProt P31152)
MAPKAPK2 = MAPKAPK2 (UniProt P49137)
MKNK1 = MKNK1 (UniProt Q9BUB5)
NTRK2 = NTRK2 (UniProt Q16620)
NTRK3 = NTRK3 (UniProt Q16288)
PAK4 = PAK4 (UniProt O96013)
PBK = PBK (UniProt Q96KB5)
PDGFRB = PDGFRB (UniProt P09619)
PDK1 = PDK1 (UniProt Q15118)
PDPK1 = PDPK1 (UniProt O15530)
PIK4CA = PIK4CA (UniProt P42356)
PIK4CB = PIK4CB (UniProt Q9UBF8)
PLK1 = PLK1 (UniProt P53350)
PRKAA1 = PRKAA1 (UniProt Q13131)
PRKCA = PRKCA (UniProt P17252)
PTK2 = PTK2 (UniProt Q05397)
PTK2B = PTK2B (UniProt Q14289)
RAF1 = RAF1 (UniProt P04049)
[1] = molecular target: RAF1_S257L (clone: RAF1_mut) (UniProt P04049)

Measured: kinase-Nluc reporter destabilization hit call

Oc1ccc2ccccc2c1SSc1c(O)ccc2ccccc12 (10 µM)
inactive: MAPK1 = 0 | MAPK4 = 0 | MAPKAPK2 = 0 | MKNK1 = 0 | NTRK2 = 0 | NTRK3 = 0 | PAK4 = 0 | PBK 0 | PDGFRB 0 | PDK1 = 0 | PDPK1 = 0 | PIK4CA 0 | PIK4CB 0 | PLK1 = 0 | PRKAA1 = 0 | PRKCA 0 | PTK2 = 0 | PTK2B 0 | RAF1 = 0 | [1] 0

Cc1ncc(F)c(Nc2n[nH]c3c2CN(C(=O)N2C[C@@H](C)N(CC4CCOCC4)C[C@@H]2C)C3(C)C)n1 (10 µM)
inactive: MAPK1 = 0 | MAPK4 = 0 | MAPKAPK2 = 0 | MKNK1 = 0 | NTRK2 = 0 | NTRK3 = 0 | PAK4 = 0 | PBK 0 | PDGFRB 0 | PDK1 = 0 | PDPK1 = 0 | PIK4CA 0 | PIK4CB 0 | PLK1 = 0 | PRKAA1 = 0 | PRKCA 0 | PTK2 = 0 | PTK2B 0 | RAF1 = 0 | [1] 0

O=C(O)/C=C/c1cc(Br)c(Br)c(Br)c1Br (10 µM)
inactive: MAPK1 = 0 | MAPK4 = 0 | MAPKAPK2 = 0 | MKNK1 = 0 | NTRK2 = 0 | NTRK3 = 0 | PAK4 = 0 | PBK 0 | PDGFRB 0 | PDK1 = 0 | PDPK1 = 0 | PIK4CA 0 | PIK4CB 0 | PLK1 = 0 | PRKAA1 = 0 | PRKCA 0 | PTK2 = 0 | PTK2B 0 | RAF1 = 0 | [1] 0

Cc1cc([N+](=O)[O-])c(NS(=O)(=O)c2cccc(C(=O)O)c2)cc1-c1cccnc1 [Alofanib] (10 µM)
inactive: MAPK1 = 0 | MAPK4 = 0 | MAPKAPK2 = 0 | MKNK1 = 0 | NTRK2 = 0 | NTRK3 = 0 | PAK4 = 0 | PBK 0 | PDGFRB 0 | PDK1 = 0 | PDPK1 = 0 | PIK4CA 0 | PIK4CB 0 | PLK1 = 0 | PRKAA1 = 0 | PRKCA 0 | PTK2 = 0 | PTK2B 0 | RAF1 = 0 | [1] 0

CC[C@H](C)[C@H](NC(=O)[C@H](CCCCN)NC(=O)[C@H](CC(C)C)NC(=O)[C@@H]1CCCN1C(=O)[C@H](CCC(=O)O)NC(=O)[C@H](Cc1ccc(O)cc1)NC(=O)[C@@H](NC(=O)[C@H](CO)NC(=O)CNC(=O)[C@H](CO)NC(=O)[C@H](CCCN=C(N)N)NC(=O)[C@H](CCCCN)NC(=O)[C@@H](NC(=O)[C@@H](N)CCCN=C(N)N)[C@@H](C)O)C(C)C)C(=O)O [Malantide] (10 µM)
inactive: MAPK1 = 0 | MAPK4 = 0 | MAPKAPK2 = 0 | MKNK1 = 0 | NTRK2 = 0 | NTRK3 = 0 | PAK4 = 0 | PBK 0 | PDGFRB 0 | PDK1 = 0 | PDPK1 = 0 | PIK4CA 0 | PIK4CB 0 | PLK1 = 0 | PRKAA1 = 0 | PRKCA 0 | PTK2 = 0 | PTK2B 0 | RAF1 = 0 | [1] 0

COc1cccc(Nc2ncnn3ccc(CN4CC[C@@H](N)[C@H](O)C4)c23)c1 (2.5 µM)
inactive: MAPK1 = 0 | MAPK4 = 0 | MAPKAPK2 = 0 | MKNK1 = 0 | NTRK2 = 0 | NTRK3 = 0 | PAK4 = 0 | PBK 0 | PDGFRB 0 | PDK1 = 0 | PDPK1 = 0 | PIK4CA 0 | PIK4CB 0 | PLK1 = 0 | PRKAA1 = 0 | PRKCA 0 | PTK2 = 0 | PTK2B 0 | RAF1 = 0 | [1] 0

CNC(=O)c1nnc(NC(=O)C2CC2)cc1Nc1cccc(-c2ncn(C)n2)c1OC [Deucravacitinib] (10 µM)
inactive: MAPK1 = 0 | MAPK4 = 0 | MAPKAPK2 = 0 | MKNK1 = 0 | NTRK2 = 0 | NTRK3 = 0 | PAK4 = 0 | PBK 0 | PDGFRB 0 | PDK1 = 0 | PDPK1 = 0 | PIK4CA 0 | PIK4CB 0 | PLK1 = 0 | PRKAA1 = 0 | PRKCA 0 | PTK2 = 0 | PTK2B 0 | RAF1 = 0 | [1] 0

COC[C@H]1Cn2cc(-c3nc(Nc4ccnn4C)ncc3C)nc2C(=O)N1Cc1ccc(F)c(F)c1 (10 µM)
inactive: MAPK1 = 0 | MAPK4 = 0 | MAPKAPK2 = 0 | MKNK1 = 0 | NTRK2 = 0 | NTRK3 = 0 | PAK4 = 0 | PBK 0 | PDGFRB 0 | PDK1 = 0 | PDPK1 = 0 | PIK4CA 0 | PIK4CB 0 | PLK1 = 0 | PRKAA1 = 0 | PRKCA 0 | PTK2 = 0 | PTK2B 0 | RAF1 = 0 | [1] 0
